Assay results taken from PMC9870992.
No constants are given. Whether binding was seen depends on the method and setting. Binding seen in cells or lysates may run through a third protein. Some results given as binding are weak or reduced against the parent protein; the word gives no strength. Sequences can lack the tags named with a protein.

Protein sequences, listed by entry. Tags and fused reporters are not part of them.
UniProt P78347: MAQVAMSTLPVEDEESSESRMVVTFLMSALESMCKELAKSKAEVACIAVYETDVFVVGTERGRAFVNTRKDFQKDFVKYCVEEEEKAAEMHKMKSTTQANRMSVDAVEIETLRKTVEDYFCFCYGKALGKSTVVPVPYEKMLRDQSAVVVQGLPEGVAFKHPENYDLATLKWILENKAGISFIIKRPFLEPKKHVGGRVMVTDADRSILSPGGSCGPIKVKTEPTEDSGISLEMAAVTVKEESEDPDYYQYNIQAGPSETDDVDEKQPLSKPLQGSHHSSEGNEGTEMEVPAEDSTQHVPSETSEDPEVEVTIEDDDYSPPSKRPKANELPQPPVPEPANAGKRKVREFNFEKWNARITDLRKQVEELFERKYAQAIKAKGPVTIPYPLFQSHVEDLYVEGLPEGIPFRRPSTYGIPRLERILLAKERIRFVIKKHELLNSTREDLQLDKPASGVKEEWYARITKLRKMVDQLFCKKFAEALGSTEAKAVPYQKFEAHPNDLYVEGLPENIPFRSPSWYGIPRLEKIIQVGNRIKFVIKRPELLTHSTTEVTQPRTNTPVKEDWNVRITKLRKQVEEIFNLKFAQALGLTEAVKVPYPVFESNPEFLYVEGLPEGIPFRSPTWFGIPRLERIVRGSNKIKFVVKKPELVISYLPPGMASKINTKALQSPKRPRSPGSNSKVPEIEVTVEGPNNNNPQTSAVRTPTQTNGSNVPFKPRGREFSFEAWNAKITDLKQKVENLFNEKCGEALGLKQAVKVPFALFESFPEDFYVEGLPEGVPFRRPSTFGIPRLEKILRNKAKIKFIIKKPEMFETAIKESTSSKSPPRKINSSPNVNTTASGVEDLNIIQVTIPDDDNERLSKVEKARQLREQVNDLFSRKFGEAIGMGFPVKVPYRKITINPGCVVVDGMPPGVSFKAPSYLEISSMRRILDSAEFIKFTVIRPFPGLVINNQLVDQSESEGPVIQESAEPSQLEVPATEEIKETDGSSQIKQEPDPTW

Target: TFII-I-Flag (UniProt P78347)
Assay: co-IP; HEK293T co-transfected with TFII-I-Flag and TRIM24-Myc; 250 μg nuclear extract in Flag-IP Buffer (50 mM Tris-HCl pH 8.0, 90 mM NaCl, 1 mM EDTA, 1% Triton X-100); anti-Flag IP at 4 °C, protein A/G agarose; blot with Myc antibody

binding: binds
B1: TRIM24-Myc (protein, UniProt O15164 1-1050)
chain: MEVAVEKAVAAAAAASAAASGGPSAAPSGENEAESRQGPDSERGGEAARLNLLDTCAVCHQNIQSRAPKLLPCLHSFCQRCLPAPQRYLMLPAPMLGSAETPPPVPAPGSPVSGSSPFATQVGVIRCPVCSQECAERHIIDNFFVKDTTEVPSSTVEKSNQVCTSCEDNAEANGFCVECVEWLCKTCIRAHQRVKFTKDHTVRQKEEVSPEAVGVTSQRPVFCPFHKKEQLKLYCETCDKLTCRDCQLLEHKEHRYQFIEEAFQNQKVIIDTLITKLMEKTKYIKFTGNQIQNRIIEVNQNQKQVEQDIKVAIFTLMVEINKKGKALLHQLESLAKDHRMKLMQQQQEVAGLSKQLEHVMHFSKWAVSSGSSTALLYSKRLITYRLRHLLRARCDASPVTNNTIQFHCDPSFWAQNIINLGSLVIEDKESQPQMPKQNPVVEQNSQPPSGLSSNQLSKFPTQISLAQLRLQHMQQQVMAQRQQVQRRPAPVGLPNPRMQGPIQQPSISHQQPPPRLINFQNHSPKPNGPVLPPHPQQLRYPPNQNIPRQAIKPNPLQMAFLAQQAIKQWQISSGQGTPSTTNSTSSTPSSPTITSAAGYDGKAFGSPMIDLSSPVGGSYNLPSLPDIDCSSTIMLDNIVRKDTNIDHGQPRPPSNRTVQSPNSSVPSPGLAGPVTMTSVHPPIRSPSASSVGSRGSSGSSSKPAGADSTHKVPVVMLEPIRIKQENSGPPENYDFPVVIVKQESDEESRPQNANYPRSILTSLLLNSSQSSTSEETVLRSDAPDSTGDQPGLHQDNSSNGKSEWLDPSQKSPLHVGETRKEDDPNEDWCAVCQNGGELLCCEKCPKVFHLSCHVPTLTNFPSGEWICTFCRDLSKPEVEYDCDAPSHNSEKKKTEGLVKLTPIDKRKCERLLLFLYCHEMSLAFQDPVPLTVPDYYKIIKNPMDLSTIKKRLQEDYSMYSKPEDFVADFRLIFQNCAEFNEPDSEVANAGIKLENYFEELLKNLYPEKRFPKPEFRNESEDNKFSDDSDDDFVQPRKKRLKSIEERQLLK
